Measured values: paper PMC9148072, “Design, Cytotoxicity and Antiproliferative Activity of 4-Amino-5-methyl-thieno[2,3-d]pyrimidine-6-carboxylates against MFC-7 and MDA-MB-231 Breast Cancer Cell Lines” (Molecules, 2022)

System: MDA-MB-231 cell line
Assay: MTT antiproliferative assay, MDA-MB-231
Assay type: cell-based, human
Details: LEI = pIC50/HA
Description: The compounds were studied for antiproliferative activity by standard MTT dye-reduction assay. Cell cultures from MCF-10A, MCF-7 and MDAMB-231 cell lines were incubated for 72 h in the presence of the tested substances in a wide range of concentrations. At the MCF-10A and MDA-MB-231 cell lines, compound 4 was applied in the range from 0.5 to 100 µg/mL, and all others from 4 to 1000 µg/mL.
All breast cell lines (MCF-10A, MCF-7 and MDA-MB-231) were purchased from the American Type Culture Collection—ATCC (Manassas, VA, USA). The MCF-7 and MDA-MB-231 were cultivated in Dulbecco’s Modified Eagle’s Medium (DMEM) supplemented with 10% fetal bovine serum (FBS), 1% sodium pyruvate, 1% MEM nonessential amino acids (NEAA) without antibiotics. The nontumorigenic breast cell line (MCF-10A) was cultivated in DMEM medium (Sigma-Aldrich, St. Louis, MO, USA) supplemented with 10% FBS, 1% sodium pyruvate, 1% nonessential amino acids (NEAA), 20 ng/mL human epithelia growth factor (hEGF), 10 μg/mL insulin, and 0.5 μg/mL hydrocortisone without antibiotics. All cell lines were maintained in a humidified atmosphere with 5% CO2 at 37 °C.
Using the standard MTT dye-reduction assay, described by Mosmann the antiproliferative activity was tested. The method is based on the metabolism of the tetrazolium salt MTT to insoluble formazan. The formazan absorption was registered using a microplate reader at λ = 540 nm. The measured absorption is an indicator of cell viability and metabolic activity. Antiproliferative activities were expressed as IC50 values (concentrations required for 50% inhibition of cell growth), calculated using nonlinear regression analysis (GraphPad Software, San Diego, CA, USA).

CCOC(=O)c1sc2nc(CCn3c(=N)[nH]c4ccccc43)[nH]c(=O)c2c1C [B, reference compound]
LEI in MDA-MB-31 test: 0.28

CCOC(=O)c1sc2nc(Cc3ccccc3)nc(N)c2c1C [Compound 2, Ethyl 4-Amino-2-benzyl-5-methyl-thieno[2,3-d]pyrimidine-6-carboxylate]
LEI in MDA-MB-31 test: 0.346

CCOC(=O)c1sc2nc(Cc3ccc([N+](=O)[O-])cc3)nc(N)c2c1C [Compound 3, Ethyl 4-Amino-5-methyl-2-(4-nitrobenzyl) Thieno [2,3-d] Pyrimidine-6-carboxylate]
LEI in MDA-MB-31 test: 0.269

CCOC(=O)c1sc2nc(-c3cc(OC)c(OC)c(OC)c3)nc(N)c2c1C [Compound 4, Ethyl 4-Amino-5-methyl-2-(3,4,5-trimethoxyphenyl)thieno [2,3-d]Pyrimidine-6-carboxylate]
LEI in MDA-MB-31 test: 0.286

CCOC(=O)c1sc2nc(-c3ccncc3)nc(N)c2c1C.Cl [Compound 6, Ethyl 4-Amino-5-methyl-2-(pyridin-4-yl)thieno[2,3-d]pyrimidine-6-carboxylate hydrochloride]
LEI in MDA-MB-31 test: 0.318
